Results published in paper PMC5045939, “Comparison of [^11C]TZ1964B and [^18F]MNI659 for PET imaging brain PDE10A in nonhuman primates” (Pharmacology Research & Perspectives, 2016).

Tested on: PDE10A
Experiment: microPET imaging of NHP brain, reference-based kinetic analysis and AUC ratio
Assay type: in vivo, cynomolgus monkey
Conditions: for BPND-Logan CV (%) / BPND-SRTM CV (%) / Bias (DVR v.s. AUC ratio): NHP striatum; for BPND-Logan CV (%) / BPND-SRTM CV (%): coefficient of variation; for Bias (DVR v.s. AUC ratio): (mean AUC ratio - mean DVR)/mean AUC ratio; for coefficients of variation based on BPND values in NHP striatum: approximate, abstract
Method: PET imaging studies were carried out on two adult male cynomolgus monkeys, weighing on 7–8 kg. Subject A underwent three sets of double scans, and Subject B underwent one set of double scans. Animals were prepared for microPET studies as previously reported (Liu et al. 2015). About 1.5–2.5% isoflurane inhalation anesthesia was maintained throughout the microPET imaging sessions. A 20‐gage plastic catheter was inserted into a limb vein to permit hydration and injection of the radiotracer. Arterial blood was collected through another 20‐gage plastic catheter which was placed into a femoral artery.
The imaging studies of [^11C]TZ1964B and [^18F]MNI659 in the NHP brain through double scans were done using a MicroPET Focus 220 scanner (Concorde/CTI/Siemens Microsystems, Knoxville, TN). For all the double scans, [^11C]TZ1964B studies were performed in the morning and [^18F]MNI659 in the afternoon, with an interval of ~3 h between the injection of each tracer. Prior to each PET acquisition, a 45‐min transmission scan for attenuation correction was performed following a 10 min transmission that was used to check the position of the brain within the scanner. Subsequently, 296–370 MBq of [^11C]TZ1964B or [^18F]MNI659 was intravenously injected, and a 120 min dynamic (3 × 1‐min frames, 4 × 2‐min frames, 3 × 3‐min frames, and 20 × 5‐min frames) PET scan was acquired.
The PET images were processed according to the previous report (Liu et al. 2015). Briefly, emission scans were corrected and reconstructed using filtered back projection as described previously (Miller et al. 1989). The final reconstructed resolution was 2.00 mm full width at half maximum (FWHM) for all three dimensions (axial) at center of the field of view. The actual field of view is 25.8 cm diameter and a 7.6 cm axial length. The reconstructed PET images was co‐registered with magnetization‐prepared rapid gradient echo (MP‐RAGE) MR images using Automated Image Registration (AIR) (Woods et al. 1993), and superimposed using Analyze 10.0 (AnalyzeDirect, Overland Park, KS) for quality control. For quantitative analyses, three‐dimensional regions of interest (ROIs) for cerebellum (Subject A: 583 voxels; Subject B: 750 voxels, the voxel size is 1.858 mm × 1.858 mm × 0.796 mm = 2.75 μL), striatum (A: 695 voxels; B: 1158 voxels), frontal cortex (A: 263 voxels; B: 225 voxels), midbrain (A: 64 voxels; B: 118 voxels), and hippocampus (A: 68 voxels; B: 64 voxels) were identified on MRI images and then transformed into PET images using the co‐registration transformation matrix. The ROIs for each animal were kept fixed for all subsequent studies once identified on a baseline scan. Time–activity curves (TACs) for each ROI were then obtained from the dynamic PET images. Standardized uptake value (SUV) of each tracer was calculated and standardized to the body weight and the injected dose of radioactivity.
Regional tracer uptake was quantified using two different reference‐based kinetic methods: Logan Reference (LoganREF) model (Logan et al. 1990, 1996; Innis et al. 2007; Liu et al. 2015) and simplified reference tissue model (SRTM) (Lammertsma and Hume 1996; Gunn et al. 1997; Innis et al. 2007; Liu et al. 2015). According to the LoganREF model, the distribution volume ratio (DVR) of each ROI was calculated using a MATLAB (Mathworks Inc., Natick, MA). The nondisplaceable binding potential (BPND) was then estimated: BPND = DVR‐1. BPND and R1, k 2 values were also obtained from the SRTM model (Lammertsma and Hume 1996; Watabe et al. 1996).
We also calculated the area under the time–activity curve (AUC) for the striatal to cerebellar ratio (AUC‐striatum/AUC‐cerebellum); this is a simple model and input function‐independent method to quantify an index of tracer accumulation in the brain (Muller Herde et al. 2015). […] Ideally, the AUC ratio equals the DVR determined by LoganREF model (Muller Herde et al. 2015). […]

SMILES	BPND-Logan CV (%)	BPND-SRTM CV (%)	Bias (DVR v.s. AUC ratio)	coefficients of variation based on BPND values in NHP striatum
Cn1cc(-c2ccncc2)c(-c2ccc(OCc3nc4ccccc4cc3O[11CH3])cc2)n1 [[^11C]TZ1964B, 3‐[^11C]methoxy‐2‐((4‐(1‐methyl‐4‐(pyridin‐4‐yl)‐1H‐pyrazol‐3‐yl)phenoxy)methyl)‐quinoline]	16.61%	8.77%	0.20	~ 10%
Cc1ccc2c(=O)n(-c3ccc(OCC[18F])cc3)c(CCN3C(=O)c4cccc(OC(C)C)c4C3=O)nc2c1 [[^18F]MNI659, 2‐(2‐(3‐(4‐(2‐[^18F]fluoroethoxy)phenyl)‐7‐methyl‐4‐oxo‐3,4‐dihydroquinazolin‐2‐yl)ethyl)‐4‐isopropoxyisoindoline‐1,3‐dione]	31.93%	25.5%	0.20	~ 30%
